From paper PMC6484772
These are yes or no findings as the source states them, for the method shown. Binding seen in cells or lysates may run through a third protein. Tags and fused reporters may be left off the sequences shown.

Protein sequences, listed by entry. Tags and fused reporters are not part of them.
UniProt P29590: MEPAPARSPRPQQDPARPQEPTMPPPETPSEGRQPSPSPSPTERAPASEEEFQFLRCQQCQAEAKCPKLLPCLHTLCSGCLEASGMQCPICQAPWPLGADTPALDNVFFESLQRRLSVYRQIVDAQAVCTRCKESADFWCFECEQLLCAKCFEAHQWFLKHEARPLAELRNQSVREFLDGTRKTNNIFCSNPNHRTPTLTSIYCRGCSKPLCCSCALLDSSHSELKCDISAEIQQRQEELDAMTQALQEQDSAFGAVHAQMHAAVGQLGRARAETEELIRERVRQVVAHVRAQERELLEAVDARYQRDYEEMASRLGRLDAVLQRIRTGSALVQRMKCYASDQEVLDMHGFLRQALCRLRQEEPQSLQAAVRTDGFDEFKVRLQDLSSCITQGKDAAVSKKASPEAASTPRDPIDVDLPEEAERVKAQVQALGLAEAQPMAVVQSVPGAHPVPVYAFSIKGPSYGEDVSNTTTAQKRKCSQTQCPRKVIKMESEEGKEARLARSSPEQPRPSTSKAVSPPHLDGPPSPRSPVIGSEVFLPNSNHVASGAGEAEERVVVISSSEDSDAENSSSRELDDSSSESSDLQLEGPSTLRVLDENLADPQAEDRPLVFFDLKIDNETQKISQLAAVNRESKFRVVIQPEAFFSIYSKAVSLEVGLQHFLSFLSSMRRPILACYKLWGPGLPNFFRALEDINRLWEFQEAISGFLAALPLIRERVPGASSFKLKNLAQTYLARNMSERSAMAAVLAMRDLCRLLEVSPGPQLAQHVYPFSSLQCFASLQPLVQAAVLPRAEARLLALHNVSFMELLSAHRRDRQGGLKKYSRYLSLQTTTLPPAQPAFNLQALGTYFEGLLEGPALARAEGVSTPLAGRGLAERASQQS
UniProt P19793: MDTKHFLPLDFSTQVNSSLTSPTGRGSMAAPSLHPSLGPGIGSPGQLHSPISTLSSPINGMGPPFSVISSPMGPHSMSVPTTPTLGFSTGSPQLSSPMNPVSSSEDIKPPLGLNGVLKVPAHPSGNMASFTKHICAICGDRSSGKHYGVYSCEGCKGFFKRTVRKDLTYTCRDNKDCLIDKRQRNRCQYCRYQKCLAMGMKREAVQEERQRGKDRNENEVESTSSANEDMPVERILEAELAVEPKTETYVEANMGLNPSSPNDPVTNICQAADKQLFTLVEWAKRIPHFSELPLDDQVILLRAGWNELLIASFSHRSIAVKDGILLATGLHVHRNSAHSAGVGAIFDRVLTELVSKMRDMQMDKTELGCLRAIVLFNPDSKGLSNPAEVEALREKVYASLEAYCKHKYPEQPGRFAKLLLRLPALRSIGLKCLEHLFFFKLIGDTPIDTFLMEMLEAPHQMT

Target: T1, GST-tagged S100A3 (human) (UniProt P33764)
T1 sequence: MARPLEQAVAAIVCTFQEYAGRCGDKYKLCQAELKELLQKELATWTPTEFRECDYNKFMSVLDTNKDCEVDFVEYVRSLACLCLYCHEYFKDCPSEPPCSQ
Test: pull-down; GST-S100A3 (GST as negative control) conjugated to Glutathione-Sepharose beads, incubated with extracts of transfected COS-7 cells; western blot of the precipitates; only the target purified

Row | Substance | binding
1 | PML (from UniProt P29590 1-882) | no binding
2 | RXRα (from UniProt P19793 1-462) (receptor) | no binding
